Test results as given in the supplement of paper PMC8291772.
± gives the standard error. The list shows a part of the results. Single values are uncertain here, since repeats match poorly.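 The library held every possible DNA sequence from one to five nucleotides long. General ability to extend was judged against a limit of the blocked-version mean plus three standard deviations, and the probe detects only chains extended by at least seven dT.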

Protein sequences, listed by entry. Tags and fused reporters are not part of them. Lines headed by an entry give the natural chain unless they say otherwise; changes in a name come on top.
UniProt P06526: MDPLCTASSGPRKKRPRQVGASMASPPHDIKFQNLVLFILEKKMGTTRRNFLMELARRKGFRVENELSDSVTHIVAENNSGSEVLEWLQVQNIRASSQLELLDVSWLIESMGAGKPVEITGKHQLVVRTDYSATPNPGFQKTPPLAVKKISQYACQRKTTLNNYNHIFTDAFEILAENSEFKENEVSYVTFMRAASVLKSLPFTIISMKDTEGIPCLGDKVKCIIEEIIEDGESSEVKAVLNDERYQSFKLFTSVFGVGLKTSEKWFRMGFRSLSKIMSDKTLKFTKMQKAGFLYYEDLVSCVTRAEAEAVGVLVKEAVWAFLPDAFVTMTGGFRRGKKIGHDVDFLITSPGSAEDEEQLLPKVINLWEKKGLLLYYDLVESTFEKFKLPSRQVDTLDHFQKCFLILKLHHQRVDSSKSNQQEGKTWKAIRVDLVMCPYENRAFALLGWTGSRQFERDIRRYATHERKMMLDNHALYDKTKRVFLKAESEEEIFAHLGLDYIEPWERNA

biological target: terminal deoxynucleotidyl transferase (calf thymus) (UniProt P06526); test: TdT poly-dT extension signal (Cy3 hybridisation fluorescence, uncapped minus capped) (fluorescence a.u.); higher = more efficient initiation of TdT extension; details: initiator chemistry: D-DNA, free 3'-OH (5'-tethered via HEG linker)
Description: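 All mono- to pentamer initiator sequences were made by photolithographic in situ synthesis (reverse 5'->3' direction) on glass on a single hexaethylene glycol linker. Each was made in uncapped and DMTr-dT-capped versions, about 11 replicate features each. Arrays were extended with calf thymus TdT (0.2 U/uL) and 100 uM dTTP in TdT buffer with 0.25 mM CoCl2 for 120 min at 37 C, then hybridised with an rA18-Cy3 probe at 4 C and scanned at 532 nm. The value is the mean uncapped signal minus the mean capped signal of the same sequence.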

Sequence	TdT poly-dT extension signal
CGCT	3390 ± 390
GATGA	3690 ± 400
TTCTA	3950 ± 390
AGAT	3250 ± 260
GCGCT	3330 ± 340
GCAA	4550 ± 380
TCAC	2800 ± 310
CGCTG	3770 ± 520
GAACA	4160 ± 350
GAATC	2930 ± 340
GATCT	3910 ± 350
AGCA	3380 ± 410
TGAG	3790 ± 270
TACGT	3560 ± 290
CCAGT	3940 ± 570
AGCGG	5020 ± 300
GTAC	3160 ± 510
TGCGA	2810 ± 460
CCATG	3970 ± 420
ATCGC	4160 ± 380
GCCAA	4620 ± 360
CTGAT	3810 ± 340
AGCGC	2980 ± 360

Sequence	TdT poly-dT extension signal
CTAAC	3340 ± 330
GTCGT	3670 ± 310
GGTCA	3960 ± 660
CAAGA	2860 ± 470
ACGTT	3510 ± 370
GCTT	3220 ± 370
CTCG	3410 ± 380
AAGAA	3750 ± 450
GTTAC	2870 ± 360
GAGTT	3340 ± 360
CCTAT	4050 ± 330
CCTCC	3160 ± 270
ACGCA	3870 ± 660
AGGTA	4300 ± 370
ACTT	2520 ± 350
AAACA	2990 ± 580
TGAGG	5500 ± 800
TGGCG	3920 ± 540
TAGAG	3800 ± 390
ATCA	3350 ± 340
CTCCC	3310 ± 160
GTAGT	3460 ± 390
AGTTA	4320 ± 440

Sequence	TdT poly-dT extension signal
TTGTA	5020 ± 600
CCGCG	4200 ± 710
GATAA	4730 ± 310
TGCAA	4370 ± 420
CCTAC	3440 ± 260
ACTCT	3860 ± 280
GTGC	2770 ± 350
TAGCA	3270 ± 470
CAACC	2780 ± 330
CTAAG	3800 ± 870
GGTAA	3940 ± 370
TAGG	3640 ± 500
ACTCG	3670 ± 420
GTTAG	3920 ± 670
CACG	3380 ± 340
TACTT	3870 ± 260
GCCCG	2610 ± 380
ATAG	3650 ± 330
GAGCA	3670 ± 440
AGCC	3710 ± 210
TATTA	4370 ± 730
GTGTT	4400 ± 340
ACAAG	4810 ± 490

Sequence	TdT poly-dT extension signal
CCGTC	4100 ± 460
ACGC	3120 ± 470
GCTGA	3830 ± 790
GTTT	3500 ± 280
ATTGG	4380 ± 340
TGGGT	4800 ± 400
AGTGA	4170 ± 240
GAGCC	2980 ± 340
ACCGG	3510 ± 440
TTGCT	3390 ± 350
ACGTA	3340 ± 430
ATTT	3590 ± 530
CTGAG	5080 ± 290
CTGAC	3250 ± 400
TCTG	3770 ± 330
AAGAG	4110 ± 390
TCAGA	4480 ± 330
GGGCA	4610 ± 440
GTAGC	3330 ± 460
CCTTT	4820 ± 380
GAGAG	3670 ± 390
CATGT	4690 ± 850
ATTCT	3770 ± 390

Sequence	TdT poly-dT extension signal
TAACG	2920 ± 430
TGACA	3540 ± 460
TATGC	3280 ± 350
ACTTG	2950 ± 500
AGAAG	4270 ± 520
ACCTC	2780 ± 250
TGAAA	4520 ± 520
ATGG	3210 ± 380
CTCAT	3450 ± 340
CAATT	3510 ± 470
TACGC	3470 ± 350
CACTA	2760 ± 420
GCCGA	3680 ± 440
TATAA	4010 ± 540
CTAGA	4110 ± 360
GTGTG	3550 ± 380
CTTG	3170 ± 450
GAAGA	3200 ± 430
CCCAT	4030 ± 460
CCGG	3690 ± 680
GTCT	3510 ± 240
TCATT	4730 ± 240
CTAG	3360 ± 430

Not a retest: entries from further up.
Sequence	TdT poly-dT extension signal
GTTAG	3920 ± 670
CACG	3380 ± 340
TACTT	3870 ± 260
GCCCG	2610 ± 380
ATAG	3650 ± 330
GAGCA	3670 ± 440
AGCC	3710 ± 210
TATTA	4370 ± 730
GTGTT	4400 ± 340
ACAAG	4810 ± 490
CCGTC	4100 ± 460
ACGC	3120 ± 470
GCTGA	3830 ± 790
GTTT	3500 ± 280
ATTGG	4380 ± 340
TGGGT	4800 ± 400
AGTGA	4170 ± 240
GAGCC	2980 ± 340
ACCGG	3510 ± 440
TTGCT	3390 ± 350
ACGTA	3340 ± 430
ATTT	3590 ± 530
CTGAG	5080 ± 290
CTGAC	3250 ± 400
TCTG	3770 ± 330
AAGAG	4110 ± 390
TCAGA	4480 ± 330
GGGCA	4610 ± 440
GTAGC	3330 ± 460
CCTTT	4820 ± 380
GAGAG	3670 ± 390
CATGT	4690 ± 850
ATTCT	3770 ± 390
TAACG	2920 ± 430
TGACA	3540 ± 460
TATGC	3280 ± 350
ACTTG	2950 ± 500
AGAAG	4270 ± 520
ACCTC	2780 ± 250
TGAAA	4520 ± 520
ATGG	3210 ± 380

The list goes on.

Sequence	TdT poly-dT extension signal
GCTCA	3150 ± 350
TAGT	2430 ± 300
TCCCC	3060 ± 230
AACT	3210 ± 290
CCCT	3240 ± 320
ACATG	3910 ± 360
GCTTG	3850 ± 340
GCACA	3930 ± 400
TTAGG	3460 ± 400
GCCGC	3270 ± 430
CTGAA	4110 ± 590
GTAA	3060 ± 380
GGGCG	4720 ± 420
ATGTA	3420 ± 330
GAATT	4010 ± 380
GGTGT	3800 ± 320
GGATC	2510 ± 360
TGATT	4380 ± 300
ACTAA	3820 ± 360
TCCCG	3300 ± 360
ACATT	4070 ± 310
TCTGC	3530 ± 280
